Experimental data taken from PMC11599752.
No constants are given. Whether binding was seen depends on the method and setting. Binding seen in cells or lysates may run through a third protein. A yes stands for co-enrichment or nearness to the bait. Other partners may have been found.

By UniProt entry, the sequences of proteins in these tests, tags left out.
UniProt P12956: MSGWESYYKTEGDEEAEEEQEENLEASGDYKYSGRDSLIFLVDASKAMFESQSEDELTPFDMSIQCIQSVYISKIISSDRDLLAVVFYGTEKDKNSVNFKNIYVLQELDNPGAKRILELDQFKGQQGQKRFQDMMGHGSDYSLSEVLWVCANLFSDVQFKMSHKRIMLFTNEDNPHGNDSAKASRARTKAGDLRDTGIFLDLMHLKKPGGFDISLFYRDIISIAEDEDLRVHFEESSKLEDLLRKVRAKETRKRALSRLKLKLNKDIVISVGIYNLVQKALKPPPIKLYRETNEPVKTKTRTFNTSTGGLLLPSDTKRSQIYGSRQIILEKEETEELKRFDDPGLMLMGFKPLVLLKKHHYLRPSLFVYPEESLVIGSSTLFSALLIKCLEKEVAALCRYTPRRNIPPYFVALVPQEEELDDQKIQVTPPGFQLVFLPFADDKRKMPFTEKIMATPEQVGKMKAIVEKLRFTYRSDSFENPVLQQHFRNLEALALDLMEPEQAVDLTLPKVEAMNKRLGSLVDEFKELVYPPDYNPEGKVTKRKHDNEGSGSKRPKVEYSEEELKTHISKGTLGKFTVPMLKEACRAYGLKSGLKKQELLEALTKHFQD

What was measured:
[1] = biological target: T1, SFPQ (human (endogenous in TREx-BCBL1-RTA)) (UniProt P23246); experiment: affinity purification with mass spectrometry
T1 sequence: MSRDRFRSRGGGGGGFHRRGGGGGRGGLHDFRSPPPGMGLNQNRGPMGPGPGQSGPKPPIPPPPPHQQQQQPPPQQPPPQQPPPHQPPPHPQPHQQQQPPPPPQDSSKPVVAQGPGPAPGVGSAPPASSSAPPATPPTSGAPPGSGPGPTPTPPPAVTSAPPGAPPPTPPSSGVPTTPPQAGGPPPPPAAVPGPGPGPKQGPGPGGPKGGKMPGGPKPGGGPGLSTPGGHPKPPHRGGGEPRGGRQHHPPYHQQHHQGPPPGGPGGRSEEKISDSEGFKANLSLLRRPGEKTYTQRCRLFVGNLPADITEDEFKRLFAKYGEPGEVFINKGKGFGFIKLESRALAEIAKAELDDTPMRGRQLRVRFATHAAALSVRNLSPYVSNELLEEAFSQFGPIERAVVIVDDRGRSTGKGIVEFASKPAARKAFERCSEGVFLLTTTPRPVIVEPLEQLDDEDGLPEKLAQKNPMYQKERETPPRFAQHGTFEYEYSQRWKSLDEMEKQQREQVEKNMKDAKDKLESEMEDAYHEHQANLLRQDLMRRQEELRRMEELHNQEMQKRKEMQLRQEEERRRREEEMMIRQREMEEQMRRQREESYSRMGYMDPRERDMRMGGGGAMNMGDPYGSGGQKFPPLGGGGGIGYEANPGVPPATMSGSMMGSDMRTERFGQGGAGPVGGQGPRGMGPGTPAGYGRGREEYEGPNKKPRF

[2] = biological target: T1, SFPQ (human (endogenous in TREx-BCBL1-RTA)); experiment: affinity purification with mass spectrom

Row | binding [2] | Substance | binding [1]
1 |  | KSHV ORF11 protein | binds
2 | binds | Ku70 (from UniProt P12956 1-609) | 
